This is one part of the list.
Compound: Cc1cc(ccc1-c1ccccc1)C(=O)N1CCCN(CC1)C(=O)CCl [compound 10]
Assay: probe-labelled cysteine peptide fold change vs DMSO (competition) (log2 fold change); higher = less target engagement (more negative = stronger competition)
Conditions: THP-1, incubation time: 4 h
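Also: competitive profiling in live THP-1 cells: cysteine peptides tagged with an iodoacetamide desthiobiotin (IA-DTB) probe, intensity after compound treatment relative to DMSO-treated cells.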

Target | probe-labelled cysteine peptide fold change (10 µM) | probe-labelled cysteine peptide fold change (50 µM)
GNB1_P62873_148_ELAGHTGYLSCCR (UniProt P62873) | 0.0142 | -0.309
GPD2_P43304_385_NYLSCDVEVR (UniProt P43304) | -0.0198 | 0.0537
GLMN_Q92990_406_CLLNTSNHSGVEAFIIQNIK (UniProt Q92990) | 0.161 | -0.0896
GMPR2_Q9P2T1_348_VTQQVNPIFSEAC (UniProt Q9P2T1) | -0.349 | -0.396
GNAI2_P04899_287_ITHSPLTICFPEYTGANKYDEAASYIQSK (UniProt P04899) | 0.0178 | -0.371
GOPC_Q9HD26_81_MTSLSSCFAQLCHK (UniProt Q9HD26) | 0.156 | 0.136
GMPR2_Q9P2T1_186_VGIGPGSVCTTR (UniProt Q9P2T1) | 0.0463 | -0.139
GNL3_Q9BVP2_251_LLGGFQETCSK (UniProt Q9BVP2) | 0.0286 | 0.0355
GNE_Q9Y223_296_HVPFDQFIQLVAHAGCMIGNSSCGVR (UniProt Q9Y223) | -0.0525 | 0.0652
GLIPR1_P48060_156_VGCAVQFCPK (UniProt P48060) | 0.0182 | -0.139
GLRX3_O76003_146_LTHAAPCMLFMK (UniProt O76003) | -0.141 | -0.29
GNL3_Q9BVP2_156_VIEASDVVLEVLDARDPLGCR (UniProt Q9BVP2) | -0.142 | -0.726
GMPS_P49915_530_SYSYVCGISSK (UniProt P49915) | 0.0256 | 0.431
GLYR1_Q49A26_486_CQNILQGNFKPDFYLK (UniProt Q49A26) | -0.00766 | 0.144
GNAI1_P63096_139_DSGVQACFNR (UniProt P63096) | 0.065 | -0.049
GPT2_Q8TD30_281_CIEDVIHFAWEEK (UniProt Q8TD30) | -0.103 | -0.0683
GLRX_P35754_79_DCIGGCSDLVSLQQSGELLTR (UniProt P35754) | -0.303 | -0.101
GLG1_Q92896_316_HLYFACR (UniProt Q92896) | -0.00226 | 0.17
GNS_P15586_513_LMMLQSCSGPTCR (UniProt P15586) | 0.168 | 0.0702
GPKOW_Q92917_137_GCTPSGEGADSEPR (UniProt Q92917) | -0.229 | -0.14

Target | probe-labelled cysteine peptide fold change (10 µM) | probe-labelled cysteine peptide fold change (50 µM)
GOLGA3_Q08378_391_DSICSSVSLESSAAETQEEMLQVLK (UniProt Q08378) | -0.235 | -0.0566
GLE1_Q53GS7_287_GNQLCSLISGIIR (UniProt Q53GS7) | 0.0931 | 0.0539
GMPS_P49915_213_NFLYDIAGCSGTFTVQNR (UniProt P49915) | 0.0686 | 0.115
GNB1_P62873_25_ACADATLSQITNNIDPVGR (UniProt P62873) | 0.127 | -0.0757
GMIP_Q9P107_521_CRECEAFMVSGTECEECFLTCHK (UniProt Q9P107) | -0.215 | -0.0164
GLG1_Q92896_118_LAEEESCR (UniProt Q92896) | -0.263 | 0.124
GOSR1_O95249_34_LCTSYSHSSTR (UniProt O95249) | 0.123 | 0.0874
GLYR1_Q49A26_303_CDLFIQEGAR (UniProt Q49A26) | -0.0399 | 0.00249
GPN1_Q9HCN4_21_HPVCLLVLGMAGSGK (UniProt Q9HCN4) | 0.0236 | -0.0868
GNL1_P36915_365_DGVVTIGCVGFPNVGK (UniProt P36915) | 0.0739 | 0.161
GLO1_Q04760_139_GFGHIGIAVPDVYSACK (UniProt Q04760) | -0.0322 | 0.0591
GLS_O94925_518+525_GIHFCHDLVSLCNFHNYDNLR (UniProt O94925) | 0.00116 | -0.0408
GMPR2_Q9P2T1_224_GHIISDGGCSCPGDVAK (UniProt Q9P2T1) | -0.0167 | -0.135
GMPPA_Q96IJ6_389_LLPAITILGCR (UniProt Q96IJ6) | 0.222 | -0.155
GLUD1_P00367_376_AKPYEGSILEADCDILIPAASEK (UniProt P00367) | -0.0816 | 0.0748
GNAQ_P50148_144_SLWNDPGIQECYDR (UniProt P50148) | -0.0786 | -0.108
GPD2_P43304_188_LYDLVAGSNCLK (UniProt P43304) | -0.32 | 0.426
GNB1_P62873_294_LLLAGYDDFNCNVWDALK (UniProt P62873) | 0.0699 | 0.17
GNB4_Q9HAV0_271_ADQELLLYSHDNIICGITSVAFSK (UniProt Q9HAV0) | 0.0903 | -0.00629

Copied from the list:
Entry of GLO1_Q04760_139_GFGHIGIAVPDVYSACK (UniProt Q04760) under probe-labelled cysteine peptide fold change (50 µM): 0.0591
Entry of GOSR1_O95249_34_LCTSYSHSSTR (UniProt O95249) under probe-labelled cysteine peptide fold change (10 µM): 0.123
Entry of GLYR1_Q49A26_303_CDLFIQEGAR (UniProt Q49A26) under probe-labelled cysteine peptide fold change (50 µM): 0.00249

Reference: the supplement of paper PMC12067093, “Discovery and optimisation of a covalent ligand for TRIM25 and its application to targeted protein ubiquitination” (Chemical Science, 2025)
